Measurements reported in PubChem BioAssay AID1259308 (NCATS, 2017).
Here is a random part of about 59,000 reagents. Over the whole deposit, about 1,510 (2.6%) were called active. 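Calls use total luciferase alone and ignore viability, so some active siRNAs may act by altering cell number.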 A number with no mark means an inactive call. Reagents against one gene are numbered here. Further read-outs or replicates are left out here.

- Screen: 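Genes whose loss raises luciferase production in HEK293 cells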 (primary screen)
- Cells: human HEK293 embryonic kidney cells stably expressing firefly luciferase (HEK-CMV-Luc2-Hygro)
- Reagents: single siRNA against human genes, 0.8 pmol siRNA per well
- Time to read-out: 72 h
- Measurement: 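Reporter luminescence and viable-cell signal on separate replicate plates, given as percent of non-targeting control and median/MAD z-scores, plus per-cell luciferase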
- Scale: total luciferase, z-score and total luciferase, % of control: higher = more reporter protein produced
- Rule for the call: 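Active when the median/MAD z-score for overall luciferase is greater than 3; a gene was taken forward for validation with new siRNAs if at least two of its three siRNAs passed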
- Meaning of the calls: active = raised luciferase; inactive = no rise

OR3A1 #1 — total luciferase, z-score = 0.783; total luciferase, % of control = 97.5
OR3A1 #2 — total luciferase, z-score = 0.607; total luciferase, % of control = 93.9
OR3A1 #3 — total luciferase, z-score = 1.75; total luciferase, % of control = 117
OR10T2 #1 — total luciferase, z-score = -0.211; total luciferase, % of control = 77.7
OR10T2 #2 — total luciferase, z-score = -0.915; total luciferase, % of control = 63.7
OR10T2 #3 — total luciferase, z-score = 2.25; total luciferase, % of control = 127
KIFC1 #1 — total luciferase, z-score = -0.24; total luciferase, % of control = 77.1
KIFC1 #2 — total luciferase, z-score = -0.633; total luciferase, % of control = 69.3
KIFC1 #3 — total luciferase, z-score = -0.779; total luciferase, % of control = 66.4
QTMAN #1 — total luciferase, z-score = -1.69; total luciferase, % of control = 48.2
QTMAN #2 — total luciferase, z-score = -0.916; total luciferase, % of control = 63.7
QTMAN #3 — total luciferase, z-score = 0.321; total luciferase, % of control = 88.3

Taken from above.
KIFC1 #2, total luciferase, z-score → -0.633
OR3A1 #1, total luciferase, z-score: 0.783

The listing continues:
NUDC #1 — total luciferase, z-score = -0.671; total luciferase, % of control = 68.5
NUDC #2 — total luciferase, z-score = 1.2; total luciferase, % of control = 106
NUDC #3 — total luciferase, z-score = -1.5; total luciferase, % of control = 52
DNLZ #1 — total luciferase, z-score = -0.695; total luciferase, % of control = 68.1
DNLZ #2 — total luciferase, z-score = -0.492; total luciferase, % of control = 72.1
DNLZ #3 — total luciferase, z-score = -0.22; total luciferase, % of control = 77.5
SBF2 #1 — total luciferase, z-score = 0.271; total luciferase, % of control = 87.3
SBF2 #2 — total luciferase, z-score = 0.151; total luciferase, % of control = 84.9
SBF2 #3 — total luciferase, z-score = 1.55; total luciferase, % of control = 113
